# Results from one PubChem assay

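293T-iDUX4 dual-reporter cells; luminescence of the tet-on Italica luciferase control is read after 24 h.
The test concentration is not given here.
Percent change in the Italica control signal; more negative values mean stronger inhibition, which points to nonspecific, tet-on or cytotoxic effects.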

Values are in %.
Common to all entries: measured here: Italica tet-on control reporter.
Part of the compounds only, not a random draw; the main read-out is not listed here.

- OC[C@@H]1[C@@H](c2ccc(-c3ccc(F)cc3)cc2)[C@H]2CN(CCC(F)(F)F)CCCCN12 | activity change -71.66%
- O=C(C[C@H]1CC[C@@H]2[C@H](COC[C@H](O)CN2Cc2cc(F)ccc2F)O1)N[C@H]1CCN(Cc2ccccc2)C1 | activity change -8.997%
- C[C@@H]1CN([C@@H](C)CO)C(=O)c2ccccc2-c2ccccc2CO[C@@H]1CN(C)S(=O)(=O)c1ccc(C(F)(F)F)cc1 | activity change -10.83%
- O=C(Nc1ccc(-c2ccccc2)cc1)[C@@H]1[C@@H](CO)[C@@H]2Cn3c(cccc3=O)[C@@H]2N1CC1CCCC1 | activity change -63.19%
- COc1cccc(S(=O)(=O)Nc2ccc3c(c2)C(=O)N(C)C[C@@H](OC)[C@H](C)CN(Cc2ccccc2F)[C@@H](C)CO3)c1 | activity change -5.08%
- O=C(Nc1ccc2c(c1)[C@@H]1C[C@@H](CC(=O)N3CCc4ccccc4C3)O[C@@H](CO)[C@@H]1O2)c1ccc2c(c1)OCO2 | activity change -75.85%
- CO[C@H]1CN(C)C(=O)c2ccc(NC(=O)C3CC3)cc2OC[C@@H](C)N(CCc2ccccc2)C[C@@H]1C | activity change -5.465%
- COc1cccc(-c2ccc(C3[C@@H]4CN(Cc5ccccn5)C[C@H]3N4)cc2)c1 (some centres unmarked) | activity change -1.123%
- COc1ccc2c3c(n(C)c2c1)[C@@H](CO)N(C(=O)Nc1ccc(F)cc1)CC31CN(S(=O)(=O)c2cccc(F)c2)C1 | activity change -64.94%
- COc1ccc(CN2C[C@@H](C)[C@@H](OC)CN(C)C(=O)c3cc(NC(=O)c4nc5ccccc5s4)ccc3OC[C@H]2C)cc1 | activity change -5.123%
- O=C(Nc1ccc(C(F)(F)F)cc1)Nc1ccc2c(c1)[C@@H]1C[C@@H](CC(=O)N3CCc4ccccc4C3)O[C@@H](CO)[C@@H]1O2 | activity change -55.09%
- O=C(C[C@@H]1CC[C@H]2[C@@H](COC[C@H](O)CN2C(=O)Nc2ccc(C(F)(F)F)cc2)O1)NCC1CCCCC1 | activity change -20.33%
- COc1ccc2c3c(n(C)c2c1)[C@H](CO)N(Cc1ccc2c(c1)OCO2)CC31CCN(C(=O)C2CC2)CC1 | activity change -9.161%
- COc1ccc(C#Cc2ccc([C@@H]3[C@@H](CO)N4CCCCN(C(=O)c5ccncc5)C[C@H]34)cc2)cc1 | activity change 4.664%
- COc1ccc(NC(=O)N[C@H]2CC[C@@H](CCNS(=O)(=O)c3cccc(Cl)c3)O[C@H]2CO)cc1 | activity change -6.151%
- Cc1ccc(S(=O)(=O)N2CC[C@@H]3[C@@H](CO)N(C)c4ccc(-c5ccc(C#N)cc5)cc4[C@@H]32)cc1 | activity change -42.09%
- COc1ccc(-c2ccc(C3[C@@H]4CN(Cc5ccccn5)C[C@H]3N4)cc2)cc1 (some centres unmarked) | activity change -24.35%
- C[C@@H]1CN([C@@H](C)CO)C(=O)c2ccccc2-c2ccccc2CO[C@@H]1CN(C)Cc1ccc(Oc2ccccc2)cc1 | activity change -12.66%
- O=C([C@H]1N[C@H]2c3ccc(-c4ccccc4F)c(=O)n3C[C@H]2[C@@H]1CO)N1CCc2ccccc2C1 | activity change -5.542%
- N#Cc1ccc(-c2ccc3c(c2)[C@H]2[C@H](CCN2S(=O)(=O)c2cccc(F)c2)[C@H](CO)N3)cc1 | activity change -59.51%
- C[C@H]1CN([C@@H](C)CO)C(=O)c2c(c3ccccc3n2C)-c2ccccc2CO[C@@H]1CN(C)S(=O)(=O)c1ccc(F)cc1 | activity change -32.96%
- C[C@@H](NC(=O)C[C@@H]1CC[C@H](NC(=O)Cc2ccccn2)[C@H](CO)O1)c1ccccc1 | activity change -16.78%
- Fc1cccc(-c2ccc(C3[C@H]4CNC[C@@H]3N4Cc3ccccc3F)cc2)c1 (some centres unmarked) | activity change -76.37%
- CO[C@H]1CN(C)C(=O)c2ccc(NC(=O)Nc3ccccc3Cl)cc2OC[C@H](C)NC[C@@H]1C | activity change -40.33%
- COc1cccc(S(=O)(=O)N2CC3(CCN(C)CC3)c3c(n(C)c4cc(OC)ccc34)[C@H]2CO)c1 | activity change -8.397%
- C[C@H](CO)N1C[C@H](C)[C@@H](CN(C)Cc2ccc(-c3ccccc3)cc2)OCc2cnnn2CCCC1=O | activity change -61.62%
- O=C(c1cnccn1)N1CC(=O)N2[C@H](C1)[C@H](c1ccc(C#CCc3ccccc3)cc1)[C@@H]2CO | activity change -9.466%
- C[C@@H]1CN([C@@H](C)CO)C(=O)c2c(c3ccccc3n2C)-c2ccccc2CO[C@H]1CN(C)Cc1ccc(F)cc1 | activity change -6.763%
- CCc1cnc(N2[C@H](CO)[C@@H](c3ccccc3-c3ccccc3C)[C@@H]2C#N)s1 | activity change -20%
- COc1cccc(S(=O)(=O)Nc2ccc3c(c2)[C@@H]2C[C@H](CC(=O)NCc4ccc(Cl)cc4)O[C@@H](CO)[C@@H]2O3)c1 | activity change -29.48%
- O=C(c1ccccc1)N1CC(=O)N2[C@H](C1)[C@@H](c1ccc(/C=C/c3ccccc3)cc1)[C@@H]2CO | activity change -31.34%
- O=C(C[C@@H]1CC[C@@H]2[C@H](COC[C@H](O)CN2CCc2ccccc2)O1)N1CCC(Cc2ccccc2)CC1 | activity change -2.55%
- O=C(C1CCCCC1)N1CC2(C1)[C@H](c1ccccc1)[C@@H](CO)N2CC1CCCC1 | activity change -9.944%

The first 3 entries again:

For OC[C@@H]1[C@@H](c2ccc(-c3ccc(F)cc3)cc2)[C@H]2CN(CCC(F)(F)F)CCCCN12 the result was activity change -71.66%.
For O=C(C[C@H]1CC[C@@H]2[C@H](COC[C@H](O)CN2Cc2cc(F)ccc2F)O1)N[C@H]1CCN(Cc2ccccc2)C1 the result was activity change -8.997%.
For C[C@@H]1CN([C@@H](C)CO)C(=O)c2ccccc2-c2ccccc2CO[C@@H]1CN(C)S(=O)(=O)c1ccc(C(F)(F)F)cc1 the result was activity change -10.83%.

From PubChem BioAssay record AID1224904 (Broad Institute, 2016).